Results reported in PMC9289666, “Highly Parallelized, Multicolor Optogenetic Recordings of Cellular Activity for Therapeutic Discovery Applications in Ion Channels and Disease-Associated Excitable Cells” (Frontiers in Molecular Neuroscience, 2022).

By UniProt entry, the sequences of proteins in these tests, tags left out.
UniProt Q15858, whole entry: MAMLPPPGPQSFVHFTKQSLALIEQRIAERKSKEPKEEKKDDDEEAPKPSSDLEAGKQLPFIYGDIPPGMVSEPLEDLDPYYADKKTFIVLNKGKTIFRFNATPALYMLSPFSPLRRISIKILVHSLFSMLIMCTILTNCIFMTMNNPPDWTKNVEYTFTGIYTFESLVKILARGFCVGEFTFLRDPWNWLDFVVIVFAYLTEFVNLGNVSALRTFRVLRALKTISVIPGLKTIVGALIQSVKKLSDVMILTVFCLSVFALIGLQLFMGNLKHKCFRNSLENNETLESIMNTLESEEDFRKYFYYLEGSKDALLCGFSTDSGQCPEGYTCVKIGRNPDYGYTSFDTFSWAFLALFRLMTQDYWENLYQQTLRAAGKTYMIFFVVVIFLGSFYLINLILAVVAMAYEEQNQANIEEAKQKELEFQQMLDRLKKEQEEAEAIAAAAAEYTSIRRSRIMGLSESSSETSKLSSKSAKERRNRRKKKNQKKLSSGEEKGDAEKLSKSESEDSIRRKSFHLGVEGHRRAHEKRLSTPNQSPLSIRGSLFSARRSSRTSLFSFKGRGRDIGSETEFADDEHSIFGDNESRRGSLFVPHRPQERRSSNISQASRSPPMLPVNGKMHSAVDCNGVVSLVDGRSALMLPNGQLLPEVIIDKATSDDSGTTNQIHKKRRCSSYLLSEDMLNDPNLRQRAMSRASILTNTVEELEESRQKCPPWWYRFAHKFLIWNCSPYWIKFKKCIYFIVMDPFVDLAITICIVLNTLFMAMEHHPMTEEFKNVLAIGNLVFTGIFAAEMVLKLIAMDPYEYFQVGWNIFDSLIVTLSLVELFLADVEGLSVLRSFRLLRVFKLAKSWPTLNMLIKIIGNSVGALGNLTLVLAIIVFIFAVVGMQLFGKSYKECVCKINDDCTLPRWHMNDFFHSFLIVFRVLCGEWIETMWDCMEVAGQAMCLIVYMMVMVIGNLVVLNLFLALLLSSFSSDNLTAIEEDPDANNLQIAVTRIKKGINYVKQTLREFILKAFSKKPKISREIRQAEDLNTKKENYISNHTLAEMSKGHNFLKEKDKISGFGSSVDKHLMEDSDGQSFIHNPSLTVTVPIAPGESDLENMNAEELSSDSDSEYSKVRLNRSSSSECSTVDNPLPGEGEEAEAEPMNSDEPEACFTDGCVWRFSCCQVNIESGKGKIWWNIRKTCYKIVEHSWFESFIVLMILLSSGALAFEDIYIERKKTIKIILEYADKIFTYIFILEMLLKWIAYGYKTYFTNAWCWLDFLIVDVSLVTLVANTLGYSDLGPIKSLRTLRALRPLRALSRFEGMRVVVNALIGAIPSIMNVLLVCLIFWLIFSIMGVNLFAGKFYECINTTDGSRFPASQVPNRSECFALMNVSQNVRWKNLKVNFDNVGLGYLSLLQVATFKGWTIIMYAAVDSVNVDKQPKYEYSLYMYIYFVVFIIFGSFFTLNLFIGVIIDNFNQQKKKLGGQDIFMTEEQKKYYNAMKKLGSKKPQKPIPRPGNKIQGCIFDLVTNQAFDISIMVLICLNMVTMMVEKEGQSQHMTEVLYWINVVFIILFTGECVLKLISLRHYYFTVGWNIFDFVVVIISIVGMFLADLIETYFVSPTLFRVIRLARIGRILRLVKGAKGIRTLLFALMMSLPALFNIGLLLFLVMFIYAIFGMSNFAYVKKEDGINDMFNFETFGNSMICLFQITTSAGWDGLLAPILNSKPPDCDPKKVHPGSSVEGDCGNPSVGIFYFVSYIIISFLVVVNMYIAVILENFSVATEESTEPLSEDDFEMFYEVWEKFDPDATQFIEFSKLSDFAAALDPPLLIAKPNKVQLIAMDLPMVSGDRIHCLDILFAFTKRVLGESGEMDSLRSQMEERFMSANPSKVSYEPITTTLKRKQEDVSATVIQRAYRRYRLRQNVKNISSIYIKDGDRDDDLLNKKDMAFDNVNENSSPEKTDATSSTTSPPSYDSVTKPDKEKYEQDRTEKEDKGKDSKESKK

Experiments:
human Nav.1.7 = biological target: T1, human Nav.1.7 (Homo sapiens, UniProt Q15858); assay: Nav1.7 spiking HEK assay on Swarm; assay type: cell-based; conditions: normalized mean spike amplitude score; Prestwick library compounds
T1 construct: expressed in transfected cells

Nav1.5 = conditions: read-out: Nav1.5 Ionworks (IC50); automated patch clamp, literature reported; ref Harmer et al., 2011; cited from earlier work

Nav1.7 Swarm (score at 3 µM) (human Nav.1.7): 0.02
SMILES: CN1CCC[C@@H]1CCO[C@](C)(c1ccccc1)c1ccc(Cl)cc1 [Clemastine]
IC50 (Nav1.5): 4 µM
